The supplement of paper PMC12823440, “Inhibitors supercharge kinase turnover through native proteolytic circuits” (Nature, 2025)
The other results are listed elsewhere or left out. Hit calls seldom repeat between salt and free forms of one compound.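 In K562 cells expressing nanoluciferase-fused kinases, luminescence was recorded at 4 h intervals between 2 and 18 h, normalized as percent of control with DMSO at 100% and a positive control at 0%. A significant (2 sigma) signal drop marks a time point as decreased. The authors' rule for a hit is not shown and takes in more than the number of time points.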

Protein sequences, listed by entry. Tags and fused reporters are not part of them. Lines headed by an entry give the natural chain unless they say otherwise; changes in a name come on top.
UniProt P48729: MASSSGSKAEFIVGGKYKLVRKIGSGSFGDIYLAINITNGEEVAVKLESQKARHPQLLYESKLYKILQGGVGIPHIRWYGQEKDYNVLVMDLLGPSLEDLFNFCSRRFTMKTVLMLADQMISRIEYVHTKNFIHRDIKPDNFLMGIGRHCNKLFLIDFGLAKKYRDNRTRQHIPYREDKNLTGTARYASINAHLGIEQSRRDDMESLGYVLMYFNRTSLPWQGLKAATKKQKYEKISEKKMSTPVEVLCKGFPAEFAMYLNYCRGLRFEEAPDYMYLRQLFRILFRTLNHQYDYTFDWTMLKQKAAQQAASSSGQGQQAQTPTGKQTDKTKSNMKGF
UniProt P48730: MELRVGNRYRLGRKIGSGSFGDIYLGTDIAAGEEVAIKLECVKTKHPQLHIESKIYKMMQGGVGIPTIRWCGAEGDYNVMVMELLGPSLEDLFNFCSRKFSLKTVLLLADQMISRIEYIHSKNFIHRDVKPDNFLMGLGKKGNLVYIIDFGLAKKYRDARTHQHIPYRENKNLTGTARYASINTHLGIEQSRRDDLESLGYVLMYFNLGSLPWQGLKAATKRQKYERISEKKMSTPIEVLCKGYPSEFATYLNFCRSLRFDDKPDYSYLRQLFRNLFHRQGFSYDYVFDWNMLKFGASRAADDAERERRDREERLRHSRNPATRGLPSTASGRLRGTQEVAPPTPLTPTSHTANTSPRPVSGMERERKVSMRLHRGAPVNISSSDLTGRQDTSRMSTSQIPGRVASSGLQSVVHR
UniProt Q08345: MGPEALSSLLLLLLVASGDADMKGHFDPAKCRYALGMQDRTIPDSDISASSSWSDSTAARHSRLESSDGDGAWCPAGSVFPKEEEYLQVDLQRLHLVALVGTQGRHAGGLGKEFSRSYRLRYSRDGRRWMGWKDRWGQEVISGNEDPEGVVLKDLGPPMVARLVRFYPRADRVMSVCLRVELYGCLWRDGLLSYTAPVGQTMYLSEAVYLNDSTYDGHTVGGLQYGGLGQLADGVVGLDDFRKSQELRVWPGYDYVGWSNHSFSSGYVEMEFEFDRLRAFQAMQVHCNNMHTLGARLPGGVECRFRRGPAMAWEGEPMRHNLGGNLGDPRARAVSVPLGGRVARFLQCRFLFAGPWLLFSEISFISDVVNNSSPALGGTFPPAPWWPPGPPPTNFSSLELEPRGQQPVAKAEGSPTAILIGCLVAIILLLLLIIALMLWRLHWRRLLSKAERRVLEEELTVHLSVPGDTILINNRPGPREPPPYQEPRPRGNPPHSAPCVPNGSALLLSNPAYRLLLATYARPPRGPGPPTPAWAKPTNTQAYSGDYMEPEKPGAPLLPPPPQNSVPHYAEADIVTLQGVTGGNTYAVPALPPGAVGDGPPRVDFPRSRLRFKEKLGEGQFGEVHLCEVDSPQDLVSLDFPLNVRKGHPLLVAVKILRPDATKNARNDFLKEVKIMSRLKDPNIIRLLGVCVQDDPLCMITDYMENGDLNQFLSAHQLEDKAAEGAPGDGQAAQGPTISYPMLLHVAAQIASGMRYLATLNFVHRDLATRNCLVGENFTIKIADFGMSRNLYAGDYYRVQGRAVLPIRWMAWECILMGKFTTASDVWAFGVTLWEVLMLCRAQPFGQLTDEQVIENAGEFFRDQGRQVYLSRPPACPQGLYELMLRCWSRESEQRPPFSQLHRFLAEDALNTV
UniProt Q9Y463, whole entry, looked up: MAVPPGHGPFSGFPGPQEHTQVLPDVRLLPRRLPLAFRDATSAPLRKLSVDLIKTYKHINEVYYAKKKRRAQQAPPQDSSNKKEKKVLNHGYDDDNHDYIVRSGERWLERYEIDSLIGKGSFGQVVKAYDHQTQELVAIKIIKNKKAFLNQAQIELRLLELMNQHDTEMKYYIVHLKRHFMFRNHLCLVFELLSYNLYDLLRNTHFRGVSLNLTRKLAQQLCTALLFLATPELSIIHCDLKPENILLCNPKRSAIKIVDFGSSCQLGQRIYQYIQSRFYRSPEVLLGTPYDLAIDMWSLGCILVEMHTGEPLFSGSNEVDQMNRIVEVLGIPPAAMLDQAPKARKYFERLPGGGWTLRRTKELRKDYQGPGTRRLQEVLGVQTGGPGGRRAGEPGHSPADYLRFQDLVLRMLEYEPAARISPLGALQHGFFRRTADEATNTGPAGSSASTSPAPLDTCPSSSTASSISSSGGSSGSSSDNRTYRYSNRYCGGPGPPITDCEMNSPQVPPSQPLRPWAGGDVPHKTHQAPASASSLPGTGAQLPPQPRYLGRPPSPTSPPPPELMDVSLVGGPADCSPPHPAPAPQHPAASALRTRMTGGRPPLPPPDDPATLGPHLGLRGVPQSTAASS
UniProt Q92630: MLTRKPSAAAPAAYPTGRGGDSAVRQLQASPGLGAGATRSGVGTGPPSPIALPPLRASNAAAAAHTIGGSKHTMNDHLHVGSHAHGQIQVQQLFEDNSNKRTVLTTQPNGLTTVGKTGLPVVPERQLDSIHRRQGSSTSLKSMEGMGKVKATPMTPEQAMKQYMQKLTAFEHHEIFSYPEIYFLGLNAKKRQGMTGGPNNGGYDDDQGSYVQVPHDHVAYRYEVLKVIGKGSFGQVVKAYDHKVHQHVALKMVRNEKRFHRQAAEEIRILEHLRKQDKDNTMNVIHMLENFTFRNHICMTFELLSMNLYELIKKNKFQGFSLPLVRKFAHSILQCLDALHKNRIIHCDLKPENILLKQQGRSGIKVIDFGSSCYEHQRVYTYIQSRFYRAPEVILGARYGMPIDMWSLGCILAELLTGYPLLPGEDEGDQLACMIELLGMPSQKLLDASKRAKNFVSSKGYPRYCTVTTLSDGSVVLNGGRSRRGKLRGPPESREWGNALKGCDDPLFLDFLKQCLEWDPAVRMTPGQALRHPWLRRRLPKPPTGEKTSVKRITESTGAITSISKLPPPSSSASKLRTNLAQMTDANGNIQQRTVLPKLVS
UniProt P29317, whole entry: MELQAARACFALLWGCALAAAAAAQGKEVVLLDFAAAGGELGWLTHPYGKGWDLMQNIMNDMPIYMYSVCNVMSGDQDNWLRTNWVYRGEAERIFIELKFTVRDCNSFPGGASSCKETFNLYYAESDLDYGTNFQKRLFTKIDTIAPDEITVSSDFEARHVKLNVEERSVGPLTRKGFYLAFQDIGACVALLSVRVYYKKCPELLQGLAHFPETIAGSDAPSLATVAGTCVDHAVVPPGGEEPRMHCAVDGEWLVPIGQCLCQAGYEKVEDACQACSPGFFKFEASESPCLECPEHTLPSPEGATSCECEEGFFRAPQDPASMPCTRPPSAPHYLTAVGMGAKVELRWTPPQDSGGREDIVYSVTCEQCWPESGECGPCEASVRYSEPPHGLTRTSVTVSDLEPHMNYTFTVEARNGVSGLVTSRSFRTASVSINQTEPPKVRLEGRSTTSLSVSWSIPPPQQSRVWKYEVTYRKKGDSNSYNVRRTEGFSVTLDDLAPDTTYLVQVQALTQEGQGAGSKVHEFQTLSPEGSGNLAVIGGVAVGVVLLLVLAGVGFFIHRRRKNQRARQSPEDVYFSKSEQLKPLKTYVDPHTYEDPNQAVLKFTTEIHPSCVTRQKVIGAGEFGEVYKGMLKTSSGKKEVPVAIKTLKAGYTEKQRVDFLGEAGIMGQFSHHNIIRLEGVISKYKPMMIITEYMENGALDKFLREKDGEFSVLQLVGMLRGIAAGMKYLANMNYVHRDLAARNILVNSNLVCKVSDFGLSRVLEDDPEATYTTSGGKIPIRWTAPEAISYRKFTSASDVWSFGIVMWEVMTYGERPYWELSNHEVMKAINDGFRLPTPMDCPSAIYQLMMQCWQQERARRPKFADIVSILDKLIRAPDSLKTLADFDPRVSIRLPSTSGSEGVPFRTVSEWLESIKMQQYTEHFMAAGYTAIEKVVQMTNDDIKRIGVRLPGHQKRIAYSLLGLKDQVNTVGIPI
UniProt O75460: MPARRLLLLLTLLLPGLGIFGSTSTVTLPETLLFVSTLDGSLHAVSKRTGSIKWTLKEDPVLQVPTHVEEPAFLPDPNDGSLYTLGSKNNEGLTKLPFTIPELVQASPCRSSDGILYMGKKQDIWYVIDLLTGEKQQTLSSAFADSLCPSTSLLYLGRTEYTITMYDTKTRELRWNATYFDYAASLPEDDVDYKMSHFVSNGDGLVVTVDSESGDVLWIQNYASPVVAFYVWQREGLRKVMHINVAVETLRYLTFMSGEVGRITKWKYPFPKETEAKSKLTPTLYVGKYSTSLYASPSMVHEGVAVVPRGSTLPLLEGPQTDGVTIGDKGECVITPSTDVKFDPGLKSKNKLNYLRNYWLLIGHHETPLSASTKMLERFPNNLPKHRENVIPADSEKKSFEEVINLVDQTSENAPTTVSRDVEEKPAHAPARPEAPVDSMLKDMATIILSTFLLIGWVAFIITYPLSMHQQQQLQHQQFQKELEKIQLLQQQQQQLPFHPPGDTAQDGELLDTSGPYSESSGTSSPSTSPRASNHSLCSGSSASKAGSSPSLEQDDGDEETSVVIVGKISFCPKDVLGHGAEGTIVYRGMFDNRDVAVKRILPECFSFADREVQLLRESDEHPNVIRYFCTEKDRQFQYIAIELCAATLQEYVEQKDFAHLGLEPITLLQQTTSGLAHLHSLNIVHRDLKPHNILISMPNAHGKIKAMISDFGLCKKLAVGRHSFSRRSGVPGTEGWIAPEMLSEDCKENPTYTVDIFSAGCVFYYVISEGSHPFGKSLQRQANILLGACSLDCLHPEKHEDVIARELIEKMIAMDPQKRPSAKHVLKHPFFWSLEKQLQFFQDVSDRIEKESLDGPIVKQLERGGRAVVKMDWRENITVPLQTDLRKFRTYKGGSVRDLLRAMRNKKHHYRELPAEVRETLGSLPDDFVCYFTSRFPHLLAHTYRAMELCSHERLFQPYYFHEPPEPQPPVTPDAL
UniProt P21802, whole entry, looked up: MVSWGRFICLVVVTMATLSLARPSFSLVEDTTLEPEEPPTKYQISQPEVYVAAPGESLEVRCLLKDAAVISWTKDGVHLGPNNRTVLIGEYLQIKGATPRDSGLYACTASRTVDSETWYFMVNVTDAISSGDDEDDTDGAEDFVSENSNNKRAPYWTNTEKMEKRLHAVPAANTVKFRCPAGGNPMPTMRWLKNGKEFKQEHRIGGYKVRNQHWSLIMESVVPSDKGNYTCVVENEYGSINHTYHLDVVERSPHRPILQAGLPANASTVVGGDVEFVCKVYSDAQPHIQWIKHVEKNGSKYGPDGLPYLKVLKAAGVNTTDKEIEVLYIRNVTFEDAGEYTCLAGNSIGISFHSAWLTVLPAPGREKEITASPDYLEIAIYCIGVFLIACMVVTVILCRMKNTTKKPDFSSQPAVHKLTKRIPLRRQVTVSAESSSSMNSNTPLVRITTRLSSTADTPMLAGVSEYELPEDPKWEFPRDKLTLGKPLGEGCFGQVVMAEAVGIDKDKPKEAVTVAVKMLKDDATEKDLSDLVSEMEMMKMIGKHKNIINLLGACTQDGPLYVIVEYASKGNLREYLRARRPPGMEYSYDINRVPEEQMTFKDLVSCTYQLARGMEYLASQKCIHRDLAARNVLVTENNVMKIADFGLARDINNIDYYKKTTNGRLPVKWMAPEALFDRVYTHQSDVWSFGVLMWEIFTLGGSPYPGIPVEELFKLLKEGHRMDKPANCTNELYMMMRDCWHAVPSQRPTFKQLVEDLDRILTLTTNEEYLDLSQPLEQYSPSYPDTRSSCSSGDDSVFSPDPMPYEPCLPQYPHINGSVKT
UniProt P22607, whole entry, looked up: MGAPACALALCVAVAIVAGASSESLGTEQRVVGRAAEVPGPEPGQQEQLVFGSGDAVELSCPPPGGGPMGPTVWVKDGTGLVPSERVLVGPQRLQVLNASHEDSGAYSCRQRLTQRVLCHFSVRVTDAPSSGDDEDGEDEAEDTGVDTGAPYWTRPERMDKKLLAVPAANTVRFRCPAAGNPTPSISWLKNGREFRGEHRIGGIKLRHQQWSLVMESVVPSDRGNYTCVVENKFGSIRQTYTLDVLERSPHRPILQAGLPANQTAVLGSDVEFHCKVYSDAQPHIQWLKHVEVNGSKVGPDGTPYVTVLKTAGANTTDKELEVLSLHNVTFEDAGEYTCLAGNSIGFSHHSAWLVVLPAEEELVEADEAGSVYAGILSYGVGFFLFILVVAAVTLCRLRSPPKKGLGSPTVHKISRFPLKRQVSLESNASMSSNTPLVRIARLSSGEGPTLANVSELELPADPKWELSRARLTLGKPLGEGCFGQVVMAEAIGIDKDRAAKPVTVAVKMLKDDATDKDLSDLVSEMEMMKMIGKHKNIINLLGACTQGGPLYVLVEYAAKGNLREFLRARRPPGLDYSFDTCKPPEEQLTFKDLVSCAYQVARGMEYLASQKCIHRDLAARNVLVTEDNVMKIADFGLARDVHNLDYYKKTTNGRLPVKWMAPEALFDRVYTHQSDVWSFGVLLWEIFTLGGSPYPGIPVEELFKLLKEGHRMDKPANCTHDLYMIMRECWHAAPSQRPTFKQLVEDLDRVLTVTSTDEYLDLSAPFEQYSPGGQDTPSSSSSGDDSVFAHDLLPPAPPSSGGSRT

What was measured:
Experiment in all cases: number of time points (of 5) at which kinase-Nluc abundance scored as decreased, DMSO-normalised (count); higher = more persistent destabilization
Conditions in all cases: K562; 2-18 h
CSNK1A1 = CSNK1A1 (UniProt P48729)
CSNK1D = CSNK1D (UniProt P48730)
DDR1 = DDR1 (UniProt Q08345)
DYRK1B = DYRK1B (UniProt Q9Y463)
DYRK2 = DYRK2 (UniProt Q92630)
EGFR = EGFR (UniProt P00533)
EGFR_G719S = EGFR_G719S (UniProt P00533)
EGFR_G719S_T790M = EGFR_G719S_T790M (UniProt P00533)
EGFR_L718V = EGFR_L718V (UniProt P00533)
EGFR_L858R = EGFR_L858R (UniProt P00533)
EGFR_L861Q = EGFR_L861Q (UniProt P00533)
EGFR_T790M = EGFR_T790M (UniProt P00533)
EPHA2 = EPHA2 (UniProt P29317)
ERBB3 = ERBB3 (UniProt P21860)
[1] = target: ERBB4_R711C (clone: ERBB4_mut) (UniProt Q15303)
ERN1 = ERN1 (UniProt O75460)
FGFR1 = FGFR1 (UniProt P11362)
FGFR2 = FGFR2 (UniProt P21802)
FGFR3 = FGFR3 (UniProt P22607)
FGR = FGR (UniProt P09769)

Row | Compound | number of time points (CSNK1A1) | number of time points (CSNK1D) | number of time points (DDR1) | number of time points (DYRK1B) | number of time points (DYRK2) | number of time points (EGFR) | number of time points (EGFR_G719S) | number of time points (EGFR_G719S_T790M) | number of time points (EGFR_L718V) | number of time points (EGFR_L858R) | number of time points (EGFR_L861Q) | number of time points (EGFR_T790M) | number of time points (EPHA2) | number of time points (ERBB3) | number of time points [1] | number of time points (ERN1) | number of time points (FGFR1) | number of time points (FGFR2) | number of time points (FGFR3) | number of time points (FGR)
1 | C[C@@H]1CN(Cc2ccc(F)cc2)[C@@H](C)CN1C(=O)c1cc2c(C(=O)C(=O)N(C)C)cn(C)c2cc1Cl [Talmapimod] (10 µM) | 0 | 0 | 0 | 0 | 0 | 0 | 0 | 0 | 0 | 0 | 0 | 0 | 0 | 0 | 0 | 0 | 0 | 0 | 0 | 0
2 | O=S(=O)(c1ccc(O)cc1O)N1Cc2cc(O)cc(O)c2C1 (10 µM) | 0 | 0 | 0 | 0 | 0 | 0 | 0 | 0 | 0 | 0 | 0 | 0 | 0 | 0 | 0 | 0 | 0 | 0 | 0 | 0
3 | COc1cc2nc(NC3CC3)nc(NC3CCN(C(C)C)CC3)c2cc1OC (10 µM) | 0 | 0 | 0 | 0 | 2 | 0 | 0 | 0 | 0 | 0 | 0 | 0 | 0 | 0 | 0 | 0 | 0 | 2 | 0 | 0
4 | C[C@@H](NC(=O)c1ncnc(N)c1Cl)c1ncc(C(=O)Nc2cc(C(F)(F)F)c(Cl)cn2)s1 (2.5 µM) | 2 | 2 | 2 | 0 | 4 | 1 | 2 | 2 | 1 | 3 | 2 | 1 | 0 | 3 | 3 | 1 | 0 | 3 | 0 | 0
5 | CCOc1cc(N2CCC(O)CC2)ccc1Nc1ncc2c(n1)N(C1CCCC1)CCC(=O)N2C (2.5 µM) | 0 | 0 | 0 | 0 | 0 | 0 | 0 | 0 | 0 | 0 | 0 | 0 | 0 | 0 | 0 | 0 | 0 | 0 | 0 | 0
6 | CCCCNc1ncc(C(=O)NCc2ccc(-n3ccnc3)cc2)c(NC2CCC(O)CC2)n1 (stereo not given) (10 µM) | 0 | 0 | 5 | 0 | 0 | 3 | 0 | 4 | 0 | 0 | 1 | 0 | 0 | 0 | 2 | 0 | 0 | 0 | 0 | 0
7 | CS(=O)(=O)c1cccc(CNc2nc(Nc3ccc4c(c3)CCC(=O)N4)ncc2C(F)(F)F)c1 (10 µM) | 0 | 0 | 0 | 0 | 0 | 0 | 0 | 0 | 0 | 0 | 0 | 0 | 0 | 0 | 0 | 0 | 0 | 0 | 0 | 0
8 | O=C(NC[C@H](O)CO)c1ccncc1Nc1ccc(I)cc1F [Pimasertib] (10 µM) | 0 | 1 | 1 | 0 | 2 | 1 | 2 | 1 | 0 | 1 | 2 | 1 | 0 | 2 | 1 | 1 | 0 | 3 | 0 | 0
9 | Cc1cccc(-c2nn3c(c2-c2ccnc4ccc(C(N)=O)cc24)CCC3)n1 [Galunisertib] (10 µM) | 0 | 0 | 0 | 0 | 0 | 0 | 0 | 0 | 0 | 0 | 0 | 0 | 0 | 0 | 0 | 0 | 0 | 0 | 0 | 0
10 | Cc1nc(Nc2cnn(C3CCNCC3)c2)nc2c1N(C)C(=O)c1cc3ccccc3cc1N2C (2.5 µM) | 0 | 0 | 0 | 0 | 0 | 0 | 0 | 0 | 0 | 0 | 0 | 0 | 0 | 0 | 0 | 0 | 0 | 0 | 0 | 0
11 | Cc1ccc(C2CC(=O)NC(SCC(=O)Nc3nccs3)=C2C#N)cc1 (stereo not given) [Necrostatin-34] (10 µM) | 0 | 0 | 0 | 0 | 0 | 0 | 0 | 0 | 0 | 0 | 0 | 0 | 0 | 0 | 0 | 0 | 0 | 0 | 0 | 0
12 | COc1cc2c(cc1OC)[C@@H]1C(=O)c3ccc4c(c3O[C@@H]1CO2)C=CC(C)(C)O4 [Deguelin] (10 µM) | 0 | 0 | 0 | 0 | 0 | 0 | 0 | 0 | 0 | 0 | 0 | 0 | 0 | 0 | 1 | 0 | 0 | 0 | 0 | 0
13 | COC(=O)N1CCN(C2CCC(Nc3nc(Nc4cnn(C)c4)nc4ccc(CC#N)nc34)CC2)CC1 (stereo not given) (10 µM) | 0 | 0 | 0 | 0 | 0 | 0 | 0 | 0 | 0 | 0 | 0 | 0 | 0 | 0 | 0 | 0 | 0 | 0 | 0 | 0
14 | Nc1ccc(-c2nc3ccc(-c4nc5ccc(N)cc5[nH]4)cc3[nH]2)cc1 (10 µM) | 0 | 0 | 0 | 0 | 0 | 0 | 0 | 0 | 0 | 0 | 0 | 0 | 0 | 0 | 0 | 0 | 0 | 0 | 0 | 0
15 | O=C(Nc1ccc(F)cc1F)C(NC(=S)Nc1cc(C(F)(F)F)cc(C(F)(F)F)c1)c1ccccc1 (racemic) (2.5 µM) | 0 | 0 | 0 | 0 | 0 | 0 | 0 | 0 | 0 | 0 | 0 | 0 | 0 | 0 | 0 | 0 | 0 | 0 | 0 | 0
16 | CN(C)C(=O)c1cc2cnc(Nc3ccc(N4CCN(CCCCNC(=O)COc5cccc6c5C(=O)N(C5CCC(=O)NC5=O)C6=O)CC4)cn3)nc2n1C1CCCC1 (stereo not given) (10 µM) | 0 | 0 | 0 | 0 | 0 | 0 | 0 | 0 | 0 | 0 | 0 | 0 | 0 | 0 | 0 | 0 | 0 | 0 | 0 | 0
17 | Cn1cnc2c(F)c(Nc3ccc(Br)cc3F)c(C(=O)NOCCO)cc21 [Binimetinib] (10 µM) | 0 | 0 | 1 | 0 | 1 | 0 | 0 | 0 | 0 | 0 | 0 | 0 | 0 | 0 | 0 | 0 | 0 | 3 | 0 | 0

2 entries from above, reformatted:

| Row | Compound | number of time points (CSNK1A1) | number of time points (CSNK1D) | number of time points (DDR1) | number of time points (DYRK1B) | number of time points (DYRK2) | number of time points (EGFR) | number of time points (EGFR_G719S) | number of time points (EGFR_G719S_T790M) | number of time points (EGFR_L718V) | number of time points (EGFR_L858R) | number of time points (EGFR_L861Q) | number of time points (EGFR_T790M) | number of time points (EPHA2) | number of time points (ERBB3) | number of time points [1] | number of time points (ERN1) | number of time points (FGFR1) | number of time points (FGFR2) | number of time points (FGFR3) | number of time points (FGR) |
| --- | --- | --- | --- | --- | --- | --- | --- | --- | --- | --- | --- | --- | --- | --- | --- | --- | --- | --- | --- | --- | --- |
| 11 | Cc1ccc(C2CC(=O)NC(SCC(=O)Nc3nccs3)=C2C#N)cc1 (stereo not given) [Necrostatin-34] (10 µM) | 0 | 0 | 0 | 0 | 0 | 0 | 0 | 0 | 0 | 0 | 0 | 0 | 0 | 0 | 0 | 0 | 0 | 0 | 0 | 0 |
| 12 | COc1cc2c(cc1OC)[C@@H]1C(=O)c3ccc4c(c3O[C@@H]1CO2)C=CC(C)(C)O4 [Deguelin] (10 µM) | 0 | 0 | 0 | 0 | 0 | 0 | 0 | 0 | 0 | 0 | 0 | 0 | 0 | 0 | 1 | 0 | 0 | 0 | 0 | 0 |
